This note sets out measurements from article PMC7819943, “Rice protein-binding microarrays: a tool to detect cis-acting elements near promoter regions in rice”.

Amino acid sequences for entries named in this document (tags omitted).
UniProt Q0JBA9, entry or part of it: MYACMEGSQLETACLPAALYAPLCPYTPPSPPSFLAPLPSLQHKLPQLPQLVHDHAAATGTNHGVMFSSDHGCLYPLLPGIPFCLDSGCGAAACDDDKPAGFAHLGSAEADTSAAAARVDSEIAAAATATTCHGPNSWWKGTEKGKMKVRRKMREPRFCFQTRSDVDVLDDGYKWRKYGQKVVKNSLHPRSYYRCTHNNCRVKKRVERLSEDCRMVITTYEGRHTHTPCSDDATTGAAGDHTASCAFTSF

Some of the results follow.

The assay concerns the target OsWRKY34 (Oryza sativa, UniProt Q0JBA9 1-250). In words: protein-binding microarray (RPBM); PBS, 2% BSA, 51.3 ng/ul salmon testes DNA, 50 uM zinc acetate, 200 nM TF, 25 C, 1 h; high values mean tight binding. The following applies: protein: recombinant; tags: N-terminal polyhistidine and DsRed monomer fusion (pET32a); label: CyDye5-dUTP incorporated in the synthesized complementary strand; 3' TTTTT single-stranded linker to array surface; dsDNA, one strand shown. The method in brief:
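Transcription factors were each fused at the N-terminus to a polyhistidine tag plus DsRed and expressed in E. coli BL21-CodonPlus before Ni–NTA purification. Binding to a double-stranded custom Agilent array was carried out with 200 nM protein at 25 °C for 1 h in PBS, 2% BSA, salmon testes DNA and 50 µM zinc acetate. The binding signal is per-feature fluorescence intensity, in arbitrary units, on an Axon 4000B scanner.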
Turning to “ATCCCAGCCACACGCTTGCTTTGTTTTTCCTCATCCTTGCCGGAGTCACCTAGTGCAG”, the binding signal is 9020 fluorescence intensity (a.u.).
On to “TTTTCGATCACATCAAAACTTTCCTACACACACAAACTTTCGGAGTCACCTAGTGCAG”, for which the binding signal was 8640 fluorescence intensity (a.u.).
For “TTTTTAATAGATGACGCTGTTGACTTTTTCCCACATGTTTCGGAGTCACCTAGTGCAG”, the binding signal was 24200 fluorescence intensity (a.u.).
Turning to “GGCCACCGCTATCCATGCACACACTTACAACCTATCCCTACGGAGTCACCTAGTGCAG”, the binding signal was 9850 fluorescence intensity (a.u.).
As to “TCCTCGCTCGCTCACCTCACCTCACCTCACTCACCTACATCGGAGTCACCTAGTGCAG”, the binding signal is 10200 fluorescence intensity (a.u.).
Turning to “CTGCCGGCACTTCCCGTCGTCGTCGATCACCGCTGCTCCCCGGAGTCACCTAGTGCAG”, the binding signal was 8990 fluorescence intensity (a.u.).
Turning to “CGACCTCCGCCAGCCACGTCAACCTGACTTTTGTGAAAAACGGAGTCACCTAGTGCAG”, the binding signal is 8180 fluorescence intensity (a.u.).
As to “TCCTGTCTGTTTGTCCCGGGGTCTCGTGGCACCTCAATTTCGGAGTCACCTAGTGCAG”, the binding signal is 12300 fluorescence intensity (a.u.).
With “AAGAAGCCGCCTTGGTTTGGTAGTACAATTGTTCATCGGCCGGAGTCACCTAGTGCAG”, the binding signal was 8330 fluorescence intensity (a.u.).
The result for “TTTGGAGCCATTTCGTTTAGTTTGAGTTCTTTCGGTGTTTCGGAGTCACCTAGTGCAG” reads 11800 fluorescence intensity (a.u.); that for “CAGGCTTCCCTCGCTCTCTTTAATCTGCCACCATCAACAACGGAGTCACCTAGTGCAG”, 8060 fluorescence intensity (a.u.).
In the case of “GGTTTAGACGTGGCGGTGGTGGGTGGCGTACGTTTGGGTTCGGAGTCACCTAGTGCAG”, the binding signal was 12000 fluorescence intensity (a.u.).
Take “CTCACCAACCTCGTCTCGTCTCGTCTCGTCTCGCCTCTCGCGGAGTCACCTAGTGCAG”: the binding signal is 10500 fluorescence intensity (a.u.).
As for “GTCCCCGAACTTCCAGTTAATTATGTGCCGGTCCTAGATTCGGAGTCACCTAGTGCAG”, the binding signal is 9310 fluorescence intensity (a.u.).
To “GACACTGCCACCTCACTCTCCACTCCACTATATATACCCTCGGAGTCACCTAGTGCAG” belongs 12100 fluorescence intensity (a.u.).
In the case of “CTCGCTTCTCGCGGCTAGGGTTTTAGGGTTTTTTTTTTCCCGGAGTCACCTAGTGCAG”, the binding signal is 11900 fluorescence intensity (a.u.).
To “GTCTGATTTTGGCTGTGTAAATCCGTCTCAGGATAGGCCGCGGAGTCACCTAGTGCAG” belongs 9130 fluorescence intensity (a.u.).
In the case of “TGGTTGGTTGTGTTGTAATGGCTGTTAGTATTAGGAGAAACGGAGTCACCTAGTGCAG”, the binding signal is 12000 fluorescence intensity (a.u.).
On to “CTTGTTTCTCTTTTTCCTTTTCATTTCAGTGTTGTGTAATCGGAGTCACCTAGTGCAG”, for which the binding signal was 13800 fluorescence intensity (a.u.).
“CATCCTCGACGCTGACACTGGGGTGGAGGAGGTGGGGAGGCGGAGTCACCTAGTGCAG”: the binding signal is 12600 fluorescence intensity (a.u.).
Turning to “CCTCTGCTACGTCCAGTTCCCGCAGCGCTTCGAGGGCATCCGGAGTCACCTAGTGCAG”, the binding signal is 8700 fluorescence intensity (a.u.).
On to “GGTATCTTGTTCTGTCTGTTCTGATAGTATTTTGTATATCCGGAGTCACCTAGTGCAG”, for which the binding signal was 12000 fluorescence intensity (a.u.).
In the case of “GGGCTGAATCGTTTTTTTTGTTGGTGTGCTTTGAATGCACCGGAGTCACCTAGTGCAG”, the binding signal was 10000 fluorescence intensity (a.u.).
With “TATGTTGCGTTTTAGTTTTAGTTCCATATATTTTAGCAGACGGAGTCACCTAGTGCAG”, the binding signal is 8780 fluorescence intensity (a.u.).
For the sequence “GGTGGCAAACACATTCTTCTTCCTGTTTCTAAACAAATCTCGGAGTCACCTAGTGCAG”, the binding signal is 8290 fluorescence intensity (a.u.).
Regarding “TTTTTTTTGCCTTTCGCCACTGACTCGTGTCAACATCTCACGGAGTCACCTAGTGCAG”, the binding signal was 9550 fluorescence intensity (a.u.).
The result for “GGTCGCGTCTCCTCGTCTCGTCGCCTCTTCCTCCTTCCAACGGAGTCACCTAGTGCAG” reads 12300 fluorescence intensity (a.u.).
In the case of “GCCCGCCCGCCCGCCGCAGCCGCCGAGCATTTTAAGTATCCGGAGTCACCTAGTGCAG”, the binding signal was 9680 fluorescence intensity (a.u.).
“CCCGCCGCCGCGGCTGCCACCGCACGTGCGTCGACCCCGCCGGAGTCACCTAGTGCAG”: the binding signal is 8730 fluorescence intensity (a.u.).
Regarding “CCCAAGTCACCAGCATCACCACTCTCGCATGCTCCATTTCCGGAGTCACCTAGTGCAG”, the binding signal is 8770 fluorescence intensity (a.u.).
Consider “GAGAGGGGTGTGGGGCTCAATTTAGATCCTCTGCAGTGGACGGAGTCACCTAGTGCAG”, for which the binding signal is 10900 fluorescence intensity (a.u.).
In the case of “TCATATCATATGGCATACTACTTCTATTCTTTTTTTTTTGCGGAGTCACCTAGTGCAG”, the binding signal was 8600 fluorescence intensity (a.u.).
On to “ACCCACACCCACGGATCACTGCCCCACTCCCAACCCATCTCGGAGTCACCTAGTGCAG”, for which the binding signal is 10400 fluorescence intensity (a.u.).
To “ATCAGTCCCGTCCGTGCCCGCCGACCCACTCAAAGATCAACGGAGTCACCTAGTGCAG” belongs 8350 fluorescence intensity (a.u.); to “GAATTTAGGGGTTGTTTGGTTGCTTCCTTGAGAATCATGCCGGAGTCACCTAGTGCAG”, 8840 fluorescence intensity (a.u.); to “GGGTTCGAGTCCCACCAGGCGTGTCTTCGTTTTGGATTCTCGGAGTCACCTAGTGCAG”, 8220 fluorescence intensity (a.u.).
On to “CTACTACCGTCGTATTTATGTTTTTTGTTTTTCAGATAAACGGAGTCACCTAGTGCAG”, for which the binding signal was 8800 fluorescence intensity (a.u.).
Take “TCCCCACCGCCGCTCTAGGGTTAGGGTTTCGTGTTTCGTCCGGAGTCACCTAGTGCAG”: the binding signal is 8230 fluorescence intensity (a.u.).
With “TCTTTTCCTTTTTCTACTTACTATTATTATTATATAATATCGGAGTCACCTAGTGCAG”, the binding signal is 8900 fluorescence intensity (a.u.).
Regarding “CCTCCTCTTCTTCTTCTTCGCCAGCACCATCGCTTCCAACCGGAGTCACCTAGTGCAG”, the binding signal was 8480 fluorescence intensity (a.u.).
In the case of “GAATAGTTTCCCTAGTTCAGTCGTGTTTCCCGTGTTCTGACGGAGTCACCTAGTGCAG”, the binding signal was 9590 fluorescence intensity (a.u.).
Consider “CCCCTGTTTCTCGGTTCTTTCGCTCGCCTTCTAGGCCCAACGGAGTCACCTAGTGCAG”, for which the binding signal is 11400 fluorescence intensity (a.u.).
